Source: PubChem BioAssay AID1671195 (Yale University, 2021)
This is an unselected part of about 22,000 deposited reagents. Of all reagents, about 1,510 (6.9%) got an active call. 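Active includes knockdowns raising or lowering LDL uptake; positive z-scores mean more uptake, negative mean less.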 Unmarked entries are inactive.

Purpose: 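Genes whose knockdown alters LDL uptake in liver cancer cells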 (primary screen)
Cell system: human Huh7 hepatoma cells
Reagent: siRNA pool against human genes, 18 nM
Timing: about 2 to 2.5 days of knockdown, then 8 h LDL uptake
Challenge: DiI-labelled LDL at 30 µg/ml for 8 h, in lipoprotein-deficient serum medium
Measurement: 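Fluorescent LDL signal imaged in cells, scaled to the plate median, robust z-score for each replicate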
Direction: robust z-score: higher = more LDL uptake after knockdown
Hit rule: 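Active when two or more replicates show a robust z-score above 2 or below -2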

target gene	robust z-score, replicate 1	robust z-score, replicate 2	robust z-score, replicate 3
MYOD1	0.199	0.585	0.848
VKORC1L1	2.19 (active)	2.69	1.9
EIF4EBP1	-1.36	-1.45	-1.13
DNAJC10	-1.38	-1.13	-1.75
PTPRB	-0.0232	0.0347	-0.659
NUDT16	2.23 (active)	2.56	1.24
GABRA4	-0.911	-0.671	-0.55
LYSMD3	-1.51	-0.788	-1.49
BSN	1.57	-0.885	-0.527
ATP11A	0.563	0.486	0.381
RHOH	1.4	0.908	2.18
PIGN	0.806	0.346	0.858
C6orf163	-1.28	-1.39	-1.36
CLUL1	-1.15	-0.0593	0.298
CKS2	0.538	0.384	0.918
FAR1	0.142	0.341	-0.0569
COX4I2	0.811	1.75	0.37
PNP	0.973	0.751	0.953
NAGPA	-0.885	1.19	-0.34
GSTZ1	-1.17	-0.89	-1.47
RBPJ	-0.615	1.31	0.688
MARCO	0.395	0.479	-0.173
PIGR	-0.422	-0.375	-1.14
PLXNA2	-0.22	-0.133	-0.197
ATPAF2	0.938	0.824	0.279
ATP5F1E	-0.696	-0.752	-0.477
CDKN2B	0.13	-0.349	0.102
GRAMD2B	0.855	1.95	0.526

Called active (from the list above):
target gene	robust z-score, replicate 1	robust z-score, replicate 2	robust z-score, replicate 3
VKORC1L1	2.19 (active)	2.69	1.9
NUDT16	2.23 (active)	2.56	1.24
